Measurements reported in PubChem BioAssay AID1224826 (NIAID, 2016)
Assay: 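Regulators of Tlr4 signalling leading to Tnf-alpha expression in macrophages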 (primary screen). Cells: RAW264.7 G9 macrophages from mouse bearing reporters for p65 (GFP) and the Tnf promoter (mCherry). Reagents: siRNA pool against mouse genes, 100 nM. Time to read-out: 16 h of LPS stimulation, after 2 days of siRNA transfection. Challenge: bacterial lipopolysaccharide (Salmonella minnesota R595), 10 ng/ml. Detection: 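Nuclear mCherry signal of the Tnf promoter reporter measured by imaging after background removal, scaled to each plate median and turned into robust z-scores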. Reading the numbers: Tnf reporter robust z-score: higher = stronger Tnf promoter reporter signal after LPS. Active means: 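Called active when robust z-score is at most -1.3, matching the median of the Tlr4 knock-down control, or over 3; control wells and wells with under 50 cells never active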. Meaning of the calls: active = Tnf reporter clearly lowered or raised; inactive = no clear change in Tnf reporter.
In all, the deposit lists about 17,000 reagents; this is a part drawn at random. About 1,110 of them (6.6%) were called active. 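Active means lowered or raised reporter signal; replicate intensities are raw and not normalised per plate.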 Not all columns of the deposit are shown.

Gene | PubChem SID | Tnf reporter robust z-score | fewer than 50 cells in well | outcome
Serpina1d (serine (or cysteine) peptidase inhibitor, clade A, member 1D) | SID315469406 | -0.67 | enough cells in well | inactive
Gfap (glial fibrillary acidic protein) | SID315466881 | -0.5 | enough cells in well | inactive
Mlst8 (MTOR associated protein, LST8 homolog (S. cerevisiae)) | SID315471651 | 0.93 | enough cells in well | inactive
Nr4a1 (nuclear receptor subfamily 4, group A, member 1) | SID315467233 | -0.39 | enough cells in well | inactive
Mettl21e (methyltransferase like 21E) | SID315481899 | – | fewer than 50 cells per well; well left out of calls | inactive
Kcnj1 (potassium inwardly-rectifying channel, subfamily J, member 1) | SID315471495 | 2.55 | enough cells in well | inactive
Qsox2 (quiescin Q6 sulfhydryl oxidase 2) | SID315478577 | 0.24 | enough cells in well | inactive
Acsm5 (acyl-CoA synthetase medium-chain family member 5) | SID315480970 | 0.51 | enough cells in well | inactive
Pts (6-pyruvoyl-tetrahydropterin synthase) | SID315468826 | 0.61 | enough cells in well | inactive
Socs2 (suppressor of cytokine signaling 2) | SID315477989 | 0.12 | enough cells in well | inactive
Ccl21d (C-C motif chemokine ligand 21D) | SID315472159 | -0.37 | enough cells in well | inactive
Odf1 (outer dense fiber of sperm tails 1) | SID315468287 | 1.61 | enough cells in well | inactive
Bltp3b (bridge-like lipid transfer protein family member 3B) | SID315475074 | 0.42 | enough cells in well | inactive
Lxn (latexin) | SID315467773 | 0.39 | enough cells in well | inactive

Continued (2 carried over from the part before).
Gene | PubChem SID | Tnf reporter robust z-score | fewer than 50 cells in well | outcome
Bltp3b (bridge-like lipid transfer protein family member 3B) | SID315475074 | 0.42 | enough cells in well | inactive
Lxn (latexin) | SID315467773 | 0.39 | enough cells in well | inactive
Vwa7 (von Willebrand factor A domain containing 7) | SID315470639 | 0.54 | enough cells in well | inactive
Arl9 (ADP-ribosylation factor-like 9) | SID315481837 | -0.55 | enough cells in well | inactive
B3gnt4 | SID315478923 | 1.27 | enough cells in well | inactive
Spmap2 (sperm microtubule associated protein 2) | SID315469709 | -0.26 | enough cells in well | inactive
Nfkbiz | SID315475730 | -0.68 | enough cells in well | inactive
Nme8 (NME/NM23 family member 8) | SID315474723 | – | fewer than 50 cells per well; well left out of calls | inactive
Bmp15 (bone morphogenetic protein 15) | SID315465648 | 1.24 | enough cells in well | inactive
Wdtc1 (WD and tetratricopeptide repeats 1) | SID315478829 | -0.98 | enough cells in well | inactive
Nfu1 (NFU1 iron-sulfur cluster scaffold) | SID315471670 | 1.22 | enough cells in well | inactive
Chmp7 (charged multivesicular body protein 7) | SID315476495 | -0.4 | enough cells in well | inactive
